Measured values: PubChem BioAssay AID1347075 (National Center for Advancing Translational Sciences (NCATS), 2019)
The whole screen tested about 400,000 compounds, of which about 5,500 (1.4%) were called active. This list was built around the results that the source calls inconclusive (neither active nor inactive); the mix of calls is not that of the screen. The call rests on the fitted dose curve; in most records, active means well fitted cell-killing curve with a large enough effect; inconclusive means small, poorly fitted or top-dose-only effect, or effect the other way; inactive means flat fitted curve, though single readings scatter. Potencies beside an inconclusive call are fits to weak or partial responses and may not hold up.

Assay: qHTS assay for MDR1-selective chemotherapeutics: Primary screen using the parental adenocarcinoma cell KB-3-1; further: nearly all actives have a fitted effect of over 60% in size
Conditions: KB-3-1 viability, CellTiter-Glo ATP luminescence, 72 h; activity change, negative = cytotoxic: at 46.1 µM (top of the series)
In short: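 Viability of parental KB-3-1 cells, measured by CellTiter-Glo luminescence, followed a 72 h incubation at 37 °C with pinned compounds in phenol-red-free DMEM containing 10% FBS.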
On the % scale 0 is the no-effect control and ±100 the full control effect; potency means the concentration at half of the fitted maximal effect.

| Compound | Potency | activity change, negative = cytotoxic |
| --- | --- | --- |
| O=C(Nc1ccc(Cl)cc1)N1CCCN(Cc2ccc(F)cc2)C1 | inconclusive: 29.1 µM [cytotoxic, single point] | – |
| Cn1cc(C(=O)c2ccc(Cl)cc2Cl)cc1C(=O)N/N=C(\N)COc1ccc(Cl)cc1Cl | active: 18.4 µM | – |
| COc1ccc(C2=CC(=O)CC(c3ccc(OC)cc3)C2)cc1 (stereo not given) | inconclusive: 29.1 µM [cytotoxic, partial curve, poor fit] | – |
| CCOC1=C2[C@H](c3cccs3)N(S(=O)(=O)c3ccc(C)cc3)C[C@H]2n2c(=O)n(-c3ccccc3)c(=O)n2C1 | inactive | – |
| CCOCCN1CCN(C(=O)CN2CCCC2=O)CC1 | – | inconclusive: 18.2% |
| O=C(C[n+]1ccn(-c2ccccc2)c1)c1ccc([N+](=O)[O-])cc1 | inconclusive: 32.6 µM [cytotoxic, single point] | – |
| CCOC(=O)C(C)Oc1cccc2c(=O)n(CC(=O)NCc3ccc(F)cc3)ccc12 (stereo not given) | active: 1.3 µM | – |
| CCOc1ccccc1NC(=O)Cn1nnc2sc(-c3ccccc3)cc2c1=O | inactive | – |
| CCC(C)Sc1nnc(CNC(=O)C23CC4CC(CC(C4)C2)C3)n1C1CCCCC1 (stereo not given) | inconclusive: 18.4 µM [cytotoxic, single point] | – |
| Fc1ccc2cnc(-c3cccnc3)cc2c1 | inactive | – |
| COc1cccc(OC)c1C(=O)Nc1ccc(N2CCCC2)cc1 | – | inconclusive: -37.9% |
| CCN(CC)C(=S)Sc1c(-c2ccccc2)c2cc(Cl)ccc2[nH]c1=O | inconclusive: 29.1 µM [cytotoxic, single point] | – |
| CN1CCN(CC(=O)c2cc(C(C)(C)C)c(O)c(C(C)(C)C)c2)CC1 | inconclusive: 2.31 µM [cytotoxic, partial curve, poor fit] | – |
| COc1cccc(NC(=S)/C(=C(\[O-])c2cc(C)n(-c3ccccc3F)c2C)[n+]2ccc(N(C)C)cc2)c1 | inconclusive: 16.4 µM [cytotoxic, single point] | – |
| NS(=O)(=O)c1ccc(N2N=C(c3ccccc3)CC2c2cccc(F)c2)cc1 (stereo not given) | inconclusive: 20.6 µM [cytotoxic, single point] | – |
| CC1CN(C(=O)Nc2ccc(C(=O)NCc3cccc(F)c3)cc2)c2ccccc2S1 (stereo not given) | inactive | – |
| CCOC(=O)NC(NC(=S)Nc1ccc(OC)cc1)C(Cl)(Cl)Cl (stereo not given) | inactive | – |
| CSc1cccc(NS(=O)(=O)c2ccc3c(c2)NC(=O)C(C)C(=O)N3)c1 (stereo not given) | inconclusive: 32.6 µM [cytotoxic, single point] | – |
| CC(=NNC(=S)N1CC2CCC(CC2)C1)c1ccccn1 | inconclusive: 20.6 µM [cytotoxic, single point] | – |
| O=C(/C=C/c1ccco1)Nc1cccc(-c2nc3ccccc3[nH]2)c1 | inconclusive: 0.92 µM [rising, full curve] | – |
| O=c1c(S(=O)(=O)c2ccccc2)cn(Cc2ccccc2)c2cc(N3CCOCC3)c(F)cc12 | inactive | – |
| CCOC(=O)C1=C(C)N(C[C@@H]2CC[C@@H](Cc3ccc(-c4ccccc4)cc3)O2)C(=O)NC1c1ccc(Cl)cc1 (stereo not given in full) | inconclusive: 13 µM [cytotoxic, partial curve] | – |

| Compound | Potency | activity change, negative = cytotoxic |
| --- | --- | --- |
| C=C1C=C(C)n2ncc(C(=O)NCCCCCC)c2N1 | inconclusive: 13 µM [rising, single point] | – |
| CCCC[C@@H]1C[C@H]1[C@@H](NC(=O)c1cccs1)c1ccc(Cl)cc1 | inconclusive: 29.1 µM [cytotoxic, single point] | – |
| O=C(Nc1nnc(CCc2ccccc2)s1)c1cccc(F)c1 | inactive | – |
| O=C(Nc1nnc([C@H]2C[C@H](O)[C@@H](CO)O2)s1)c1ccccc1F | inactive | – |
| COc1ccc(S(=O)(=O)Nc2cccc3ccc(O)cc23)cc1 | active: 14.6 µM | – |
| COc1cccc(-c2ccc3c(N)c(C(=O)c4ccc(Cl)cc4)sc3n2)c1 | inconclusive: 16.4 µM [cytotoxic, single point] | – |
| N=c1c2c(ncn1Cc1ccco1)Oc1cc(O)ccc1C2c1ccccc1 (stereo not given) | inconclusive: 8.2 µM [cytotoxic, partial curve] | – |
| CCOC(=O)c1ccc(N2C(=O)c3n[nH]c(-c4cccs4)c3C2c2ccc(C(C)(C)C)cc2)cc1 (stereo not given) | inconclusive: 29.1 µM [cytotoxic, single point] | – |
| COc1ccc(CCNC(=O)CN(C)S(=O)(=O)c2cccs2)cc1OC | inactive | – |
| CCc1nc2c(OCC(=O)N3CCOCC3)cccn2c1N(C)C(=O)COc1ccccc1 | inactive | – |
| Cn1nccc1C(=O)N1CCCC(C(=O)c2cccc3ccccc23)C1 (stereo not given) | inconclusive: 16.4 µM [cytotoxic, partial curve, poor fit] | – |
| C#CCOCCOCCOCCNc1nc(N2CCN(C(=O)[C@H]([C@@H](C)CC)n3cc([C@@H](N)Cc4ccc(O)cc4)nn3)CC2)nc(N2CCN(C(=O)[C@H]([C@@H](C)CC)n3cc([C@@H](N)Cc4ccc(O)cc4)nn3)CC2)n1 | inconclusive: 23.1 µM [rising, partial curve, poor fit] | – |
| Cn1c(SCC(=O)N2CCCc3ccccc32)nc2ccccc2c1=O | inconclusive: 25.9 µM [cytotoxic, partial curve, poor fit] | – |
| CCN(c1ccc(OC)cc1)S(=O)(=O)c1nnc(NC(=O)COc2ccc(C)cc2)s1 | inconclusive: 0.366 µM [rising, full curve] | – |
| N#CCSc1nnc(COc2cccc3ccccc23)n1-c1ccccc1 | active: 16.4 µM | – |
| COc1ccc(C(=O)/C=C/C(=O)N(CC(=O)NC2CCCCC2)Cc2cccs2)c(O)c1 | inconclusive: 20.6 µM [cytotoxic, single point] | – |
| CC(C)OCCCn1c(=S)[nH]c2ccc(N3CCOCC3)cc2c1=O | inconclusive: 20.6 µM [cytotoxic, single point] | – |
| COc1ccc2c(C)c(CC(=O)NCc3ccc(C)cc3)c(=O)oc2c1OC | inactive | – |
| CCN(c1ccc(NS(=O)(=O)c2cc(Cl)ccc2Cl)cc1)C(C)C | inconclusive: 25.9 µM [cytotoxic, single point] | – |
| O=C(COc1ccc(Br)cc1)Nc1ccc(CN2CCOCC2)cc1 | inactive | – |
| COC(=O)C1=C(C)N(Cc2ccccc2)C(=NCc2cccc(C(F)(F)F)c2)N[C@H]1c1cccc(F)c1 | inconclusive: 29.1 µM [cytotoxic, single point] | – |
| CCOC(=O)C1(CCc2ccccc2)CCN(C(=O)c2cc(C)nc(C)n2)CC1 | inactive | – |

Among those listed so far, these have an aryl thioether with sulfur outside any ring:

| Compound | Potency | activity change, negative = cytotoxic |
| --- | --- | --- |
| CCC(C)Sc1nnc(CNC(=O)C23CC4CC(CC(C4)C2)C3)n1C1CCCCC1 (stereo not given) | inconclusive: 18.4 µM [cytotoxic, single point] | – |
| CSc1cccc(NS(=O)(=O)c2ccc3c(c2)NC(=O)C(C)C(=O)N3)c1 (stereo not given) | inconclusive: 32.6 µM [cytotoxic, single point] | – |
| Cn1c(SCC(=O)N2CCCc3ccccc32)nc2ccccc2c1=O | inconclusive: 25.9 µM [cytotoxic, partial curve, poor fit] | – |
| N#CCSc1nnc(COc2cccc3ccccc23)n1-c1ccccc1 | active: 16.4 µM | – |

Following part

| Compound | Potency | activity change, negative = cytotoxic |
| --- | --- | --- |
| CCN(CC)c1ccc2c(cc1=O)[C@@H](NC)CCc1cc(OC)c(OC)c(OC)c1-2 | active: 0.92 µM | – |
| CC(C)(C)NC(=O)C(c1ccc(-c2ccccc2)cc1)n1c(=O)c(-c2cc3ccccc3[nH]2)nc2ccccc21 (stereo not given) | inconclusive: 29.1 µM [cytotoxic, single point] | – |
| CCC(=O)c1cn(CC(=O)Nc2ccc(F)cc2)c2ccccc12 | inactive | – |
| Cc1ccc(NC(=O)c2ccc3c(c2)C(=O)N(c2ccccc2C)C3=O)nc1 | inactive | – |
| O=C(NC(=S)Nc1ccc(S(=O)(=O)NC2CCCCC2)cc1)c1cccs1 | inconclusive: 0.231 µM [cytotoxic, full curve, poor fit] | – |
| CCOC(=O)c1sc(NC(=O)Nc2ccc(F)cc2)nc1C | inconclusive: 18.4 µM [cytotoxic, single point] | – |
| Cc1ccc(/C=C/c2ccc(N(C)C)cc2)[n+](C)c1 | active: 2.06 µM | – |
| Cc1cccc(-c2ccc3[nH]c4c(c3c2)CCN2C[C@@H]([C@H](C)OC(=O)Nc3ccccc3C)[C@@H](N(C)C(=O)Nc3ccccc3C)C[C@@H]42)c1 | inconclusive: 18.4 µM [cytotoxic, single point] | – |
| Cc1cc(-c2ccccc2)nc2cc(C(=O)N(Cc3ccccc3)Cc3ccccc3)nn12 | inconclusive: 16.4 µM [cytotoxic, single point] | – |
| CCn1c(CC(=O)Nc2ccccc2)nnc1SCC(=O)Nc1nncs1 | inconclusive: 1.46 µM [rising, full curve] | – |
| CSc1nc(-c2ccccc2)nc(C(Cl)Cl)n1 | active: 2.91 µM | – |
| CCOC(=O)c1c(C)nc2sc(C(=O)Nc3ccc(C(C)=O)cc3)c(N)c2c1-c1ccc(OC)cc1 | inconclusive: 18.4 µM [cytotoxic, single point] | – |
| Cc1cccc(NC(=O)c2nc[nH]c2C(=O)NCCN(CCNC(=O)c2[nH]cnc2C(=O)Nc2cccc(C)c2)CCNC(=O)c2[nH]cnc2C(=O)Nc2cccc(C)c2)c1 | inconclusive: 20.6 µM [cytotoxic, single point] | – |
| C[C@H]1CCCCO[C@H](CN(C)C(=O)Nc2ccc(F)cc2)[C@@H](C)CN([C@@H](C)CO)C(=O)c2cc(NC(=O)Nc3ccc4c(c3)OCO4)ccc2O1 | inactive | – |
| Cc1ccc(Cl)cc1-c1cc(C(=O)Nc2ccc(F)cc2)[nH]n1 | inconclusive: 29.1 µM [cytotoxic, single point] | – |
| N#CCCN(Cc1cccnc1)S(=O)(=O)c1ccc2ccccc2c1 | inactive | – |
| Cc1csc(NC(=O)c2ccc(C)c([N+](=O)[O-])c2)n1 | inconclusive: 20.6 µM [cytotoxic, single point] | – |
| CCOC(=O)c1c(-c2ccccc2)oc2cc(CN(C)C)c(O)c(CN(C)C)c12 | inconclusive: 35.5 µM [cytotoxic, single point] | – |
| Cn1c(=O)[nH]c(=O)c2c1nc(N(CCO)Cc1ccccc1)n2CCCc1ccccc1 | inconclusive: 3.26 µM [cytotoxic, full curve] | – |
| CC(=O)ON(C(C)=O)c1ccc(/C=C2\C=Cc3ccccc32)cc1 | inactive | – |
| Cc1ccccc1Cn1cc(NC(=O)c2nc3ncccn3n2)cn1 | inconclusive: 18.4 µM [cytotoxic, single point] | – |
